Results on one compound are retold here after patent US3966744A, “Spin labeled compounds” (priority 1974, dated 1976).

The test system of the series is antibody (cocaine assay). The series can be described thus: Second cocaine spin immunoassay (spin label of Example 7.2). Conditions: eleven urine samples of donors who had snuffed cocaine within 12 to 24 hours.

For the compound `COC(=O)[C@H]1[C@@H](OC(=O)c2ccccc2)C[C@@H]2CC[C@H]1N2C` [cocaine], the “samples remaining positive by the cocaine assay after freezing and thawing” value is “Only one remained positive by the cocaine assay”.
